These results are taken from the supplement of paper PMC12819154, “High-throughput peptide-centric local stability assay extends protein–ligand identification to membrane proteins, tissues and bacteria” (Nature Structural & Molecular Biology, 2025).

Sequences of proteins named here, by UniProt entry; tags and fusion partners are left off. A change or cut given only in a name is not applied to a line headed by its entry.
UniProt P33587: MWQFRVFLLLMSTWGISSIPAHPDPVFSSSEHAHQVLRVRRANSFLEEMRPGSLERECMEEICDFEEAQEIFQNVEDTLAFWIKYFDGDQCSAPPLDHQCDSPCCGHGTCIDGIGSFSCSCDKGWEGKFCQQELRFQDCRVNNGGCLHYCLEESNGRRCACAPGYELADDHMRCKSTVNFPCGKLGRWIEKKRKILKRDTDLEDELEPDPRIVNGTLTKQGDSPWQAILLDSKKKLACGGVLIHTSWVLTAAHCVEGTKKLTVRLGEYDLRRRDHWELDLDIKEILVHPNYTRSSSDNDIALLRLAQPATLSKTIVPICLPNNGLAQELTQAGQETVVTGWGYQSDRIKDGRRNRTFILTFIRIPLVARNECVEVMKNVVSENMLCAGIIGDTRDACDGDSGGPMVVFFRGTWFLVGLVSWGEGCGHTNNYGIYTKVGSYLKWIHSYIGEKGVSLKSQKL
UniProt P50580: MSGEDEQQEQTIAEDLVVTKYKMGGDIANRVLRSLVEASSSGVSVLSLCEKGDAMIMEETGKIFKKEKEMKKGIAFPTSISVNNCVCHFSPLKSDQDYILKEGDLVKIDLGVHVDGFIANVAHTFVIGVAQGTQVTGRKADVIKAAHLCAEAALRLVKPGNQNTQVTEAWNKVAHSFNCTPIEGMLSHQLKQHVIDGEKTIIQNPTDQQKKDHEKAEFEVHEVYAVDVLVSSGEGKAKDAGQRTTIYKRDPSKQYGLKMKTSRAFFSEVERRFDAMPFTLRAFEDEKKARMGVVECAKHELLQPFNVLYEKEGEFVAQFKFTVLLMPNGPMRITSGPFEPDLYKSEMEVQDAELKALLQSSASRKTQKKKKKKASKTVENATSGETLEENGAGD
UniProt P29387, whole entry: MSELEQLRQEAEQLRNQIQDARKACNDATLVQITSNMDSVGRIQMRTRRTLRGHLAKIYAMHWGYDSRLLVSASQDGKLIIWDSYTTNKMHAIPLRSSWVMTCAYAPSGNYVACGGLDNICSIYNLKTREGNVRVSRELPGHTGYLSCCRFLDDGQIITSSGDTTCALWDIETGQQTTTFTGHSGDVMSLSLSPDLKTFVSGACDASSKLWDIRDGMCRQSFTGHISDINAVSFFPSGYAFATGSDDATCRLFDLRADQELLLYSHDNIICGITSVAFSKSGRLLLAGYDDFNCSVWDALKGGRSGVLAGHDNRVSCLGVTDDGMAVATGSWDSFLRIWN
UniProt P46735: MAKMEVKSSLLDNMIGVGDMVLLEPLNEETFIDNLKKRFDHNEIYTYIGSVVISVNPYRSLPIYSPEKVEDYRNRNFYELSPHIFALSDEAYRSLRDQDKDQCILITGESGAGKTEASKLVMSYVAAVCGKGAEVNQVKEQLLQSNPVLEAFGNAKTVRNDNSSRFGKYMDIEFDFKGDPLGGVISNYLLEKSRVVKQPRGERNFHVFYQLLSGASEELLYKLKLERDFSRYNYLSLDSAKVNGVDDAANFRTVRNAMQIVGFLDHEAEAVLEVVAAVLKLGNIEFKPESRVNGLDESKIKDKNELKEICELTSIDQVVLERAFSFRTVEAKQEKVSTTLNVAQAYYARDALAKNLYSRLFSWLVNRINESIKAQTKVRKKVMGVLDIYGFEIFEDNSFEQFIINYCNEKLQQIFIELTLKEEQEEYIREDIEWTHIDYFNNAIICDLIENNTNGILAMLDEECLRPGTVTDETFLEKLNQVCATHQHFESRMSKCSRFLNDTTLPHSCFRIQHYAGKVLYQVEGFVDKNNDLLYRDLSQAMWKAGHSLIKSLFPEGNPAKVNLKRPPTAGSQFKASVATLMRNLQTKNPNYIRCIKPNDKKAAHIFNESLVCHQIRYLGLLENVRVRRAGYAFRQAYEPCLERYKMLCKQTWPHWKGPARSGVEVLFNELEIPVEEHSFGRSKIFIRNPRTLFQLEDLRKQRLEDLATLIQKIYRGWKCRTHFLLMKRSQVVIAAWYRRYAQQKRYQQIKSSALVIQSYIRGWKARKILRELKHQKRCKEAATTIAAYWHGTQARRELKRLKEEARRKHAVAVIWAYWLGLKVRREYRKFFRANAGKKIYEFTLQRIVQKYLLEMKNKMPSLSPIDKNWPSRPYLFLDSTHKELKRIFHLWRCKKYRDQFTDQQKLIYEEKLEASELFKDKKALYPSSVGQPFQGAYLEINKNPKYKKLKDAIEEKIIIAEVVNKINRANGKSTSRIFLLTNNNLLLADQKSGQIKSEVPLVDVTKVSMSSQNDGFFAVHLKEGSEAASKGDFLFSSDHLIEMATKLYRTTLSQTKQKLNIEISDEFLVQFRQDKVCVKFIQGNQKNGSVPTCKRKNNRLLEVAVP
UniProt P43406, whole entry: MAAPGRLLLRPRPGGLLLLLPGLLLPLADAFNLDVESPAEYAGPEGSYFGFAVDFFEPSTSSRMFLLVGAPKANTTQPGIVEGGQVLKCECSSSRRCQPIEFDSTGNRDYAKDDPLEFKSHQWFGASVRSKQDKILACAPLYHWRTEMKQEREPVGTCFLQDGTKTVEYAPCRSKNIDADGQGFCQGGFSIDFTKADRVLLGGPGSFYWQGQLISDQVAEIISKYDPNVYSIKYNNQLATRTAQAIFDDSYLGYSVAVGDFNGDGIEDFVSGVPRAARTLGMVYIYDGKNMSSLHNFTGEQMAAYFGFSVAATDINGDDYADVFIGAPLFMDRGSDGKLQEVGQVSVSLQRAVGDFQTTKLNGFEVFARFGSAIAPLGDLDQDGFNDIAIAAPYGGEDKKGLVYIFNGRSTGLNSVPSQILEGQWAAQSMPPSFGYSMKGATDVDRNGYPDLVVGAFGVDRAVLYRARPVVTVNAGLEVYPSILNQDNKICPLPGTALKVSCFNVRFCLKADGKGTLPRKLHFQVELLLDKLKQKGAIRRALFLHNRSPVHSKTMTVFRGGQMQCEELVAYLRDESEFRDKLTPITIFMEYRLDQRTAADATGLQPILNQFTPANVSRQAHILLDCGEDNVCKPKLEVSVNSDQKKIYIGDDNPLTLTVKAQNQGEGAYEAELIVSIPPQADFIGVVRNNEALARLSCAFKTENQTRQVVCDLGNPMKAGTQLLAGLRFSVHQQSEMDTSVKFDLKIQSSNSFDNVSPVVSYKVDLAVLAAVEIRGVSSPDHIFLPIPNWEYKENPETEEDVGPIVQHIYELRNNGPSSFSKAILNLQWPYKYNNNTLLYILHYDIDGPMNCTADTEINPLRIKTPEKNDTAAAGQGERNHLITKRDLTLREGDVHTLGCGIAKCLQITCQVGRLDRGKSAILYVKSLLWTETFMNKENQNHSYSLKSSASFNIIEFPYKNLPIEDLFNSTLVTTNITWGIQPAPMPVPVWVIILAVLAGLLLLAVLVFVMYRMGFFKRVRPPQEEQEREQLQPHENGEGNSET
UniProt P50172: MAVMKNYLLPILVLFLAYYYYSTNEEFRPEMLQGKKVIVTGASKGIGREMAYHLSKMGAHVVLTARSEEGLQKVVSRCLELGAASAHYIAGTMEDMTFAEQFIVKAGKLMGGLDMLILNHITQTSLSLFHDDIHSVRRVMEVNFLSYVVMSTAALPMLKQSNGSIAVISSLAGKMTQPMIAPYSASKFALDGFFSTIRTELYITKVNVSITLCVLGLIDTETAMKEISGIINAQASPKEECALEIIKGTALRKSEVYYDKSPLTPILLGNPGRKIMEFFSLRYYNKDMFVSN
UniProt P42232: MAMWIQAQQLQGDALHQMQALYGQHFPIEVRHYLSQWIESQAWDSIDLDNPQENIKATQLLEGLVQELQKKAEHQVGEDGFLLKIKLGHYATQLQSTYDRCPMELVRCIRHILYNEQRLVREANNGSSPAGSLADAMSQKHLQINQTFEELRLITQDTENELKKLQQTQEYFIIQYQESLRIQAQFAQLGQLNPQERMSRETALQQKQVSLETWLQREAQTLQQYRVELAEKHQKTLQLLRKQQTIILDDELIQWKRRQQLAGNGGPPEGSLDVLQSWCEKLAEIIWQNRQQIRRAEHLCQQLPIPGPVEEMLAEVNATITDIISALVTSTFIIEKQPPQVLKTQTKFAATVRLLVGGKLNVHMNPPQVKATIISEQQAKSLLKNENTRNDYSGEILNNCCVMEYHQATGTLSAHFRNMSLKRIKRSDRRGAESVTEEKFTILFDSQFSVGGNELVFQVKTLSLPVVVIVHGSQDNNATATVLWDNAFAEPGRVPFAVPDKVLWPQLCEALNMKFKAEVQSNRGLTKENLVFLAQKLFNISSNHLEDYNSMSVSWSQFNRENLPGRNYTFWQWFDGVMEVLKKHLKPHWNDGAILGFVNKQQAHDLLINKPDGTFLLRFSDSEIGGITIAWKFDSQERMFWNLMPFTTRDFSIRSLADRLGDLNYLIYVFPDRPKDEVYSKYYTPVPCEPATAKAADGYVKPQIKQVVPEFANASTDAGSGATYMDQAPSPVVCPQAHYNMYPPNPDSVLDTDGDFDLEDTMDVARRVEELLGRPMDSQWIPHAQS
UniProt P50247: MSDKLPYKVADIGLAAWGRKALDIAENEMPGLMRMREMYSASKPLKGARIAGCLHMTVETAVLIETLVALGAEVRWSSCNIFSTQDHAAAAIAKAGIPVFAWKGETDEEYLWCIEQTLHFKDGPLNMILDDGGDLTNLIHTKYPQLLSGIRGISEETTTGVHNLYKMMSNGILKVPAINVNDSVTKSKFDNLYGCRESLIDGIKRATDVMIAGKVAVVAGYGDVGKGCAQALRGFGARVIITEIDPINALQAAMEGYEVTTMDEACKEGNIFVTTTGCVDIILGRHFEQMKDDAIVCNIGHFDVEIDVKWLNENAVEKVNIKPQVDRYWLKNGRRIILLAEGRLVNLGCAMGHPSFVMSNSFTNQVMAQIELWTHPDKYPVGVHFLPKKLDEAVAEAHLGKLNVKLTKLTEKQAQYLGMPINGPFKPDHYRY
UniProt P47968: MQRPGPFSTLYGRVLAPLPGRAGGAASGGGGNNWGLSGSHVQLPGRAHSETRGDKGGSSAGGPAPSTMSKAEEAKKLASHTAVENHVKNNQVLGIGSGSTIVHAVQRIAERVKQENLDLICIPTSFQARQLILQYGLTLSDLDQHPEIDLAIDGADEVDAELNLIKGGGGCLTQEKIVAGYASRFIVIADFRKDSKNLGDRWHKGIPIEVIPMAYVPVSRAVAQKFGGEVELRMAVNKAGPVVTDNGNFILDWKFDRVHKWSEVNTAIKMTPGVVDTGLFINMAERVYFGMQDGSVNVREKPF
UniProt P42669: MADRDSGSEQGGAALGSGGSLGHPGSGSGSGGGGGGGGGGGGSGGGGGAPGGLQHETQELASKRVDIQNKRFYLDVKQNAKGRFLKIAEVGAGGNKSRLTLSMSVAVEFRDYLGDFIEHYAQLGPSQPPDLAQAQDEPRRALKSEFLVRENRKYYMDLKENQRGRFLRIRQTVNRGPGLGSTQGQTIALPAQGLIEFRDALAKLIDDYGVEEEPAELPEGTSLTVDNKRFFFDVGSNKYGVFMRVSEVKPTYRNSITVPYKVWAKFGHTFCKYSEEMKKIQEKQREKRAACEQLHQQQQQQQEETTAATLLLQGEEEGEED
UniProt P43025: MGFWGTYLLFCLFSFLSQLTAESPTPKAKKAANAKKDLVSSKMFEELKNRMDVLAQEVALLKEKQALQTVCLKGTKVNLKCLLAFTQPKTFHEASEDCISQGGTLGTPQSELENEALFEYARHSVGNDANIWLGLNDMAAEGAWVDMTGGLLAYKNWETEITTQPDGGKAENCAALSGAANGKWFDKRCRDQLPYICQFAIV
UniProt P56376: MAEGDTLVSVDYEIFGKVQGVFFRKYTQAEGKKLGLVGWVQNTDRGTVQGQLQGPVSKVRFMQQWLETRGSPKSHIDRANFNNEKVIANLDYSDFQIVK
UniProt P56480, whole entry: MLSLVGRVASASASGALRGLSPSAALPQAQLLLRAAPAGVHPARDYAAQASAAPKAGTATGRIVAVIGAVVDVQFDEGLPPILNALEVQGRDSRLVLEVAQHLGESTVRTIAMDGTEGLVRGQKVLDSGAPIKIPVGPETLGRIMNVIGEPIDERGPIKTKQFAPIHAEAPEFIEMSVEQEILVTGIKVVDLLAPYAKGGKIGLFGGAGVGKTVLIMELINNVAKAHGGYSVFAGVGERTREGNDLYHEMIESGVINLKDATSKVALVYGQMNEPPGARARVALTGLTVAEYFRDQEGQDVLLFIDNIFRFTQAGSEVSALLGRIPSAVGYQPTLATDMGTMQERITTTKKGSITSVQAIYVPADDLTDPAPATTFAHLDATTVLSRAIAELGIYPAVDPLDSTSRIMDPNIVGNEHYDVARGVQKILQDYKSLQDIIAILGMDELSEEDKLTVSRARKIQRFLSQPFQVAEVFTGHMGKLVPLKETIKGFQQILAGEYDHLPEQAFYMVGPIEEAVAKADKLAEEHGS

The other results are listed elsewhere or left out. Most entries show no effect beyond the scatter of the controls.

Compound in this assay: CN[C@@H]1C[C@H]2O[C@@](C)([C@@H]1OC)n1c3ccccc3c3c4c(c5c6ccccc6n2c5c31)C(=O)NC4 [staurosporine]
Briefly: log2 fold change of pooled soluble protein (PISA), ligand vs vehicle (log2 ratio); higher = more thermally stabilized. To be noted: ligand concentration: 20 uM; assay format: PISA pool 52.9/55.5/58.6 C.
Turning to UniProt P34884, the “log2 fold change of pooled soluble protein” value (from here on “log2 fold change”) is -0.923.

For UniProt P31649, the “log2 fold change” value was determined as 0.0574.

Consider UniProt P53798, for which the “log2 fold change” value is -0.0385.

For the target UniProt P33587, the “log2 fold change” value is -0.0163.

Turning to UniProt P50580, the “log2 fold change” value turned out to be 0.00326.

For the target UniProt P34928, the “log2 fold change” value stood at 0.0737.

With UniProt P52430, the “log2 fold change” value came out at 0.0975.

Turning to UniProt P48776, the “log2 fold change” value is 0.118.

Regarding UniProt P56399, the “log2 fold change” value was -0.0121.

With UniProt P29387, the “log2 fold change” value came to 0.0652.

For UniProt P46735, the “log2 fold change” value was -0.385.

For the target UniProt P55096, the “log2 fold change” value turned out to be 0.126.

As for UniProt P46664, the “log2 fold change” value is -0.139.

With UniProt P51881, the “log2 fold change” value came out at 0.0259.

In the case of UniProt P54103, the “log2 fold change” value was 0.179.

Consider UniProt P48193, for which the “log2 fold change” value is -0.0196.

For UniProt P28651, the “log2 fold change” value is 0.146.

Turning to UniProt P47757, the “log2 fold change” value is 0.0255.

Take UniProt P43406: the “log2 fold change” value was -0.0499.

With UniProt P47738, the “log2 fold change” value is -0.00431.

Turning to UniProt P50431, the “log2 fold change” value turned out to be 0.0917.

Turning to UniProt P50172, the “log2 fold change” value was -0.0767.

On to UniProt P42232, for which the “log2 fold change” value was -0.244.

Regarding UniProt P50247, the “log2 fold change” value was determined as 0.00966.

UniProt P47968: the “log2 fold change” value is -0.0355.

Take UniProt P43006: the “log2 fold change” value worked out at 0.0408.

For UniProt P42669, the “log2 fold change” value came to 0.0409.

UniProt P43025: the “log2 fold change” value was -0.0291.

For UniProt P29533, the “log2 fold change” value is 0.0709.

UniProt P29788: the “log2 fold change” value was -0.064.

As for UniProt P32507, the “log2 fold change” value was -0.101.

UniProt P35505: the “log2 fold change” value was -0.054.

Consider UniProt P52479, for which the “log2 fold change” value came out at 0.0509.

As for UniProt P49586, the “log2 fold change” value was -0.0131.

As for UniProt P56376, the “log2 fold change” value stood at 0.0327.

As for UniProt P56480, the “log2 fold change” value is -0.095.

Take UniProt P46460: the “log2 fold change” value is -0.0184.
